By UniProt entry, the sequences of proteins in these tests, tags left out.
UniProt P11308, whole entry, looked up: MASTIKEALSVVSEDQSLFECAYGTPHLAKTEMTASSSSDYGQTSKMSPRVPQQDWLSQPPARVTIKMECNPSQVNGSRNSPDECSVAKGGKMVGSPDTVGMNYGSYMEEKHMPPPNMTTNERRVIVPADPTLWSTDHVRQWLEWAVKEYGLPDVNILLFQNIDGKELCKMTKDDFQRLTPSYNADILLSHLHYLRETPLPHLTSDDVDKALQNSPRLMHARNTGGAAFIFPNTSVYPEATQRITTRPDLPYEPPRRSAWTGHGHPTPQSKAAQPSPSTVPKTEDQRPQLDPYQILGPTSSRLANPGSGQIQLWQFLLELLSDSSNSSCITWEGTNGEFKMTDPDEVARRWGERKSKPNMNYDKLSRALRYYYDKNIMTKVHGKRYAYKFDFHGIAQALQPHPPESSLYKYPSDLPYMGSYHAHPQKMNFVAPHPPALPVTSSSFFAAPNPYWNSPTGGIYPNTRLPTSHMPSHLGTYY

Values joined by “and” are separate entries in the source; they are usually repeats but may differ in a detail not shown here. Equal values may be shown once. The whole screen tested about 370,000 compounds, of which about 100 (0.027%) were called active. The inconclusive results got no clear call from the source; some entries with a clear call stand among them for comparison. Calls follow the shape of the dose curve; as a rule, active = well fitted inhibition curve with a large enough effect in the polarisation, with a control signal flat; inconclusive = small, poorly fitted or top-dose-only effect, or effect the other way, or a change in a side signal; inactive = no such curve, though single readings can be large or run the other way; the % refers to the polarisation. A potency beside an inconclusive call is a rough fit, not a confirmed value. A note “side channel” means that the fit belongs to a control or component signal, not to the main read-out.
These molecules were tested against Transcriptional regulator ERG (Homo sapiens) (UniProt P11308) (assay: qHTS for Small Molecule Inhibitors of the ERG Ets/DNA interaction). Settings: fluorescence polarization, His-ERG Ets domain / labelled DNA; series mostly up to 76.9 µM; FP activity, negative = inhibition: at the top concentration.
From the text: The Ets family of proteins is a family of ~30 conserved transcription factors defined by the presence of an ~85 amino acid domain referred to as the Ets domain, which mediates sequence-specific DNA binding to a core DNA element GGAA/T.The Ets family member ERG has been linked to several neoplasms. […] More extensive studies of the effects of over-expression of ERG in prostate cells have recently been carried out and have shown that over-expression of ERG results in increased invasion. […] We will carry out a high throughout screen to identify inhibitors of the interaction between ERG and DNA using a fluorescence polarization (FP) assay with a His-tagged ERG Ets domain and fluorescently-labeled DNA probes to develop small molecule inhibitors of this interaction as probes to test this hypothesis and lay the groundwork for the development of targeted therapies against ERG. NIH Molecular Libraries Probe Production Network [MLPCN] NIH Chemical Genomics Center [NCGC] Grant: NS066464 PI Name: John Bushweller, University of Virgina
1.5 ul of protein solution (1 uM ERG domain in 300mM KCl, 50mM Tris-HCl, 1mM EDTA, 1mM DTT, pH 7.5); 20 nl Control plate and compound library plate; 1.5 ul mixture of 5 nM Fluorescein-DNA and 100nM Texas-615-DNA solution in same buffer as above solution; measure fluorescence polarization sequentially for fluorescein (Excitation = 480 nm, Emission = 535s, 535p nm) and Texas red (Excitation = 555 nm, Emission = 632s, 632p nm).
`C=C1C2C[C@@]3([C@@H]1O)[C@@H](C[C@@H]2O)[C@@]12C4[C@@H]3C[C@@H]1[C@@](C)(CC[C@@H]2O)CN4CC` was tested, and the Potency was inconclusive: 39.8 µM [inhibitor, partial curve, poor fit].
In the case of `CC(=NCCO)c1c(O)n(C2CCCCC2)c(=O)[nH]c1=O`, the Potency is reported as inconclusive: 7.08 µM [fluorescent, side channel, single point].
With `COc1ccc(CCNCc2sccc2C)cc1OC` the “FP activity, negative = inhibition” value was inactive: 3.37%.
In the case of `COc1ccc(C(c2ccc(OC)cc2)C(Cl)(Cl)Cl)cc1`, the Potency is reported as inconclusive: 11.2 µM [inhibitor, single point].
`Cn1c(=O)c2[nH]cnc2n(C)c1=O` was tested, and the Potency was inconclusive: 7.08 µM [inhibitor, full curve, poor fit].
`CC(=O)OC(C)(C)/C=C/C(=O)C(C)(O)C1[C@H](O)C[C@@]2(C)C3CC=C4C(CC[C@@H](O)C4(C)C)[C@]3(CO)C(=O)C[C@]12C` (stereo partly specified) was tested, and the “FP activity, negative = inhibition” value was inactive: 2.76%.
In the case of `CCCCOc1ccc(C(=O)N2CC(=O)Nc3ccc(Br)cc3C2c2ccc(F)cc2)cc1` (stereo unspecified), the Potency is reported as inconclusive: 28.2 µM [inhibitor, partial curve, poor fit].
For `O=c1c2ccccc2nc(-c2ccco2)n1-c1ccccc1`, the Potency was inconclusive: 44.7 µM [inhibitor, partial curve, poor fit].
With `CN1C(=O)/C(=C\c2ccc(N3CCCCC3)o2)C(=O)NC1=S` the “FP activity, negative = inhibition” value was inactive: 2.8%.
For `O=C(Nc1cc(C(F)(F)F)cc(C(F)(F)F)c1)c1cccn(Cc2ccccc2Cl)c1=O`, the Potency was inconclusive: 5.01 µM [quencher, side channel, full curve, poor fit].
With `COc1ccc2[nH]c(C)c(CCNCc3cccnc3)c2c1` the Potency was inconclusive: 17.8 µM [inhibitor, partial curve, poor fit].
With `CC(C)N1CCN(Cc2ccccc2C(F)(F)F)CC1CCO` (stereo unspecified) the Potency was inconclusive: 25.1 µM [inhibitor, partial curve, poor fit].
For `CC(=O)N1CC(=O)Nc2ccc(F)cc2C1c1ccccc1` (stereo unspecified), the Potency was inconclusive: 31.6 µM [inhibitor, single point].
With `Cc1ccc(C2=NC(C)(C)N3C2C3c2ccc([N+](=O)[O-])cc2)cc1` (stereo unspecified) the Potency was inconclusive: 39.8 µM [quencher, side channel, single point].
With `Cc1ccc(C2N(c3ccccn3)C(=O)C3CCCN32)o1` (stereo unspecified) the “FP activity, negative = inhibition” value was inactive: -14.5%.
In the case of `O=C(Nc1ccc2c(c1)OCO2)N1CCN(c2ccccc2)CC1`, the Potency is reported as inconclusive: 0.794 µM [inhibitor, full curve, poor fit].
`CC[n+]1c(-c2ccccc2)c2cc(N)ccc2c2ccc(N)cc21` was tested, and the Potency was active: 15.8 µM.
For `Cc1nn(Cc2ccccc2Cl)c(Cl)c1C(=O)OCC(=O)NC(=O)NC1CCCCC1`, the “FP activity, negative = inhibition” value was inactive: -9.77%.
With `Cn1cccc1/C=C1/C(=O)NC(=S)N(Cc2ccc(F)cc2)C1=O` the “FP activity, negative = inhibition” value was inactive: 59.3%.
`CCn1nc(-c2cccs2)nc2c(=O)n(C)c(=O)nc1-2` was tested, and the Potency was inconclusive: 44.7 µM [fluorescent, side channel, single point].
`O=c1oc2ccccc2cc1-c1cn2cc(Cc3ccc(F)cc3)sc2n1` was tested, and the Potency was inconclusive: 100 µM [inhibitor, single point].
`CN1C(=O)C(=Cc2ccccc2OCCOc2ccc([N+](=O)[O-])cc2)C(=O)N(C)C1=O` was tested, and the “FP activity, negative = inhibition” value was inactive: -11.2%.
For `O=c1c(O)c(-c2ccc(O)c(O)c2)oc2cc(O)cc(O)c12`, the Potency was inconclusive: 11.2 µM [inhibitor, single point].
`C[C@]12CCC(=O)C=C1CC[C@@H]1[C@@H]2CC[C@@]2(C)[C@H]1CC[C@]2(C)O` was tested, and the Potency was inconclusive: 1 µM [inhibitor, partial curve, poor fit].
For `c1ccc(CCCN2CCN(CCOC(c3ccccc3)c3ccccc3)CC2)cc1`, the “FP activity, negative = inhibition” value was inactive: -18.2%.
In the case of `CN1C(=O)/C(=C/c2ccc(N3CCCCCC3)o2)C(=O)NC1=S`, the Potency is reported as inconclusive: 6.31 µM [fluorescent, side channel, full curve, poor fit].
`O=C(c1ccccc1)N1C(=O)C(c2ccccc2)Oc2ccccc21` (stereo unspecified) was tested, and the Potency was inconclusive: 7.08 µM [inhibitor, single point].
With `CCCCC(CC)COC(=O)CCCCC(=O)OCC(CC)CCCC` (stereo unspecified) the Potency was active: 28.2 µM.
With `CN1Cc2c(c(C#N)c(N)n(C)c2=S)CC1(C)C` the Potency was inconclusive: 28.2 µM [inhibitor, single point].
For `CC(=O)C1(c2ccccc2)CCN(C(=O)C2CCC(=O)N(CCc3cccc(F)c3)C2)CC1` (stereo unspecified), the Potency was inconclusive: 8.91 µM [inhibitor, single point].
`Cc1ccccc1CN1CCN(Cc2ccccc2)CC1` was tested, and the “FP activity, negative = inhibition” value was inactive: 3.74%.
With `O=C(COc1ccccc1)NCCc1cnc[nH]1` the Potency was inconclusive: 28.2 µM [inhibitor, partial curve].
For `Nc1c2c(nc3sc4c(c13)CCCCC4)CCCC2`, the “FP activity, negative = inhibition” value was inactive: 8.22%.
With `Cc1cccc(-n2c(O)c(C)c(=O)[nH]c2=S)c1` the “FP activity, negative = inhibition” value was inactive: -4.66%.
With `OC(Cn1cncn1)(Cn1cncn1)c1ccc(F)cc1F` the Potency was inconclusive: 11.2 µM [inhibitor, single point].
With `COc1cccc(CNCCc2ccc(F)cc2)c1` the “FP activity, negative = inhibition” value was inactive: 5.12%.
With `CCOC(=O)c1c(-n2c(C)cc(/C=C3\C(=O)NC(=O)N(C)C3=O)c2C)sc2c1CCCC2` the Potency was inconclusive: 100 µM [inhibitor, single point].
For `BrCC(Br)C1CCC(Br)C(Br)C1` (stereo unspecified), the “FP activity, negative = inhibition” value was inactive: -11.9%.
In the case of `O=C1NC(=S)N(c2ccccc2)C(=O)/C1=C/c1ccco1`, the “FP activity, negative = inhibition” value is reported as inactive: 41.8%.
For `CCCn1c(C)cc(C=O)c1C`, the Potency was inconclusive: 3.98 µM [quencher, side channel, single point].
In the case of `O=C(Cc1ccccc1)Oc1ccc([N+](=O)[O-])cc1`, the Potency is reported as inconclusive: 11.2 µM [inhibitor, single point].
`Cc1ccc(CNc2cc(C)nc3nc(-c4ccc(C)cc4)nn23)cc1` was tested, and the Potency was inconclusive: 35.5 µM [fluorescent, side channel, single point].
In the case of `COc1ccccc1N1CCN(CCc2c[nH]c3cc4c(cc23)OCO4)CC1`, the Potency is reported as inconclusive: 1.41 µM [inhibitor, partial curve, poor fit].
With `CC(C)N1C(=O)/C(=C/C=C/c2ccco2)C(=O)N(Cc2ccco2)C1=O` the Potency was inconclusive: 39.8 µM [fluorescent, side channel, single point].
For `O=C1NC(=O)C(=Cc2cn(CCOc3ccc4c(c3)OCO4)c3ccccc23)C(=O)N1`, the “FP activity, negative = inhibition” value was inactive: -2.61%.
For `CCCN(CCC)C1CCc2ccc(O)cc2C1` (stereo unspecified), the Potency was inconclusive: 7.08 µM [inhibitor, single point].
With `C[C@]12CCC(=O)C[C@@H]1CC[C@@H]1[C@@H]2CC[C@]2(C)[C@@H](O)CC[C@@H]12` the Potency was inconclusive: 11.2 µM [inhibitor, single point].
In the case of `Cc1ccc(C)c(CN2C(=O)c3ccccc3S(=O)(=O)c3ccc(C(=O)N4CCCCCC4)cc32)c1`, the Potency is reported as inconclusive: 3.98 µM [quencher, side channel, partial curve, poor fit].
In the case of `CC(C)(O)/C=C/C(=O)C(C)(O)C1C(O)CC2(C)C3CC=C4C(C=C(O)C(=O)C4(C)C)C3(C)C(=O)CC12C` (stereo unspecified), the Potency is reported as inconclusive: 35.5 µM [inhibitor, partial curve].
With `Nc1nc(OCc2ccccc2)c2[nH]cnc2n1` the Potency was inconclusive: 11.2 µM [inhibitor, single point].
For `Cc1nc2cc([N+](=O)[O-])ccc2c(=O)n1-c1ccccc1[N+](=O)[O-]`, the “FP activity, negative = inhibition” value was inactive: 12%.
For `CCCCN1C(=O)/C(=C/c2ccc(N(C)C)cc2)C(=O)N(Cc2ccco2)C1=O`, the Potency was inconclusive: 50.1 µM [fluorescent, side channel, single point].
In the case of `Cc1cc(C=C(C#N)C#N)ccc1N1CCCC1`, the Potency is reported as inconclusive: 50.1 µM [inhibitor, single point].
In the case of `CCc1cccc(C)c1NC(=S)N1CC2CC(C1)c1cccc(=O)n1C2` (stereo unspecified), the “FP activity, negative = inhibition” value is reported as inactive: -13.3%.
For `C[N+](C)(C)CCCCCCCCCC[N+](C)(C)C`, the Potency was inconclusive: 50.1 µM [inhibitor, single point].
With `OCCNc1c2c(nc3ccccc13)CCCC2` the “FP activity, negative = inhibition” value was inactive: -12%.
`COc1ccc(NC(=O)c2ccc(NC(=O)c3nc4nccc(C)n4n3)cc2)cc1` was tested, and the Potency was inconclusive: 0.794 µM [inhibitor, full curve, poor fit].
`NCCc1cc(O)c(O)cc1O` was tested, and the Potency was inconclusive: 35.5 µM [inhibitor, single point] and inconclusive: 39.8 µM [inhibitor, partial curve, poor fit].
In the case of `CN1CCN(c2ccc([N+](=O)[O-])c3no[n+]([O-])c23)CC1`, the Potency is reported as inconclusive: 44.7 µM [inhibitor, partial curve, poor fit].
In the case of `O=C(N/N=C/c1c(O)n(Cc2ccccc2)c(=O)[nH]c1=O)c1ccccc1O`, the Potency is reported as inconclusive: 35.5 µM [inhibitor, partial curve, poor fit].
In the case of `COc1ccc2c(c1)c(C(=O)O)c(C)n2CC(C)C`, the “FP activity, negative = inhibition” value is reported as inactive: 3.82%.
With `C[n+]1c2cc(N)ccc2cc2ccc(N)cc21` the Potency was active: 35.5 µM.
With `O=C1NC(=O)N(c2ccccc2)C(=O)/C1=C/c1ccc(Sc2ccccc2)o1` the Potency was inconclusive: 44.7 µM [fluorescent, side channel, single point].
With `CCn1c(O)c(C=Nc2ccc(S(N)(=O)=O)cc2)c(=O)[nH]c1=S` the Potency was inconclusive: 35.5 µM [fluorescent, side channel, single point].
`O=C1NC(=O)N(Cc2ccc(F)cc2)C(=O)/C1=C\c1ccoc1` was tested, and the Potency was inconclusive: 39.8 µM [fluorescent, side channel, single point].
In the case of `CC(CCC(=O)O)C1CCC2C3CCC4C[C@H](O)CCC4(C)C3CC(=O)C12C` (stereo partly specified), the Potency is reported as inconclusive: 12.6 µM [inhibitor, partial curve, poor fit].

— PubChem BioAssay AID624246 (National Center for Advancing Translational Sciences (NCATS), 2012)
For FP activity, negative = inhibition in this document: % of control where 0% means no effect.
Potency is read from the fitted curve at half-maximal effect.
